Experimental data taken from PubChem BioAssay AID504834 (National Center for Advancing Translational Sciences (NCATS), 2011).
The whole screen tested about 320,000 compounds, of which about 22,000 (6.9%) were called active. Inconclusive means that the source gave no clear call. Such entries were picked first, then a sample of the others. Calls come from the whole dose curve; as a rule, active = well fitted inhibition curve with a large enough effect; inconclusive = small, poorly fitted or top-dose-only effect, or another doubt; inactive = no such curve, though single readings can be large or run the other way. Potencies of inconclusive entries are doubtful fits and often do not repeat.
Potency is the fitted concentration of half-maximal effect.

Experiment: Primary qHTS for delayed death inhibitors of the malarial parasite plastid, 96 hour incubation
Settings: P. falciparum luciferase reporter growth; series mostly up to 28.7 µM
Method in brief: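 Plates of compound plus infected erythrocytes (2% hematocrit, 0.05% parasitemia final) incubate 96 hours, 37 C, 5% CO2. Detection reagent added; reduced luminescence from the parasites' luciferase reporter flags inhibition.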
For `O=C(CCc1n[nH]c(=O)[nH]c1=O)N1CCCCC1`, the Potency was inconclusive: 11.7 µM [inhibitor, single point].
With `Cc1cc(C(=O)COc2cccc(-n3cnnn3)c2)c(C)n1-c1ccccc1` the Potency was “inactive”.
In the case of `CC(C)(C)OC(=O)N1Cc2ccccc2C[C@H]1C(=O)N1CCC[C@H]1C(=O)O`, the Potency is reported as “inactive”.
In the case of `O=C(NCC(c1ccc(F)cc1)N1CCOCC1)c1ccc(C(=O)c2ccccc2)cc1` (stereo not given), the Potency is reported as inconclusive: 16.5 µM [inhibitor, single point].
With `Cn1c(=O)c2c(nc(CN3CCC(C(N)=O)CC3)n2Cc2ccccc2Cl)n(C)c1=O` the Potency was inconclusive: 11.7 µM [inhibitor, single point].
For `COc1ccc(S(=O)(=O)N2CCOCC2)cc1NC(=O)CN(C)Cc1c(F)cccc1Cl`, the Potency was inconclusive: 5.86 µM [inhibitor, partial curve, poor fit].
With `CCCCNC(=O)CCCCC(=O)N/N=C/c1ccccc1Cl` the Potency was inconclusive: 11.7 µM [inhibitor, single point].
For `O=C(c1ccc(S(=O)(=O)c2ccc(Cl)cc2)cc1)N1CCOCC1`, the Potency was inconclusive: 18.5 µM [inhibitor, single point].
In the case of `Nc1nc(SCC(=O)Nc2cc(C(F)(F)F)ccc2Cl)[nH]c(=O)c1NC(=O)c1ccco1`, the Potency is reported as “inactive”.
In the case of `CCC(C)[C@@H](CN)NCC1(c2ccccc2)CC1` (stereo not given in full), the Potency is reported as inconclusive: 8.28 µM [inhibitor, partial curve, poor fit].
In the case of `O=C(C1=C[C@@H](C2CCCCC2)C[C@@H](OCCCCO)O1)N1CCN(Cc2ccccc2)CC1`, the Potency is reported as inconclusive: 13.1 µM [inhibitor, partial curve, poor fit].
With `CC(=O)NC1(c2ccccc2)CCN(c2nc(C)cc(C)n2)CC1` the Potency was “inactive”.
In the case of `O=C(OCc1nnc(-c2ccccc2)o1)c1ccc(Cl)cc1`, the Potency is reported as “inactive”.
In the case of `CCN(CC(=O)Nc1ccccc1OC)C(=O)C1CCCC1`, the Potency is reported as inconclusive: 13.1 µM [inhibitor, single point].
With `NC(=O)c1ccc(-n2nnnc2SCC(=O)c2ccc(O)c(O)c2)cc1` the Potency was inconclusive: 0.208 µM [inhibitor, full curve, poor fit].
In the case of `C=CCN(C(=O)CCC(=O)Nc1cc(C)on1)C(C(=O)NC(C)(C)CC)c1cccc(OC)c1OC` (stereo not given), the Potency is reported as “inactive”.
With `NS(=O)(=O)OCCCc1ccccc1` the Potency was “inactive”.
For `S=C(NCC1(c2ccccc2)CCCC1)Nc1ccccc1`, the Potency was inconclusive: 3.29 µM [inhibitor, full curve].
In the case of `O=C(Nc1ccccc1)c1nc[nH]c1C(=O)NCc1ccccc1`, the Potency is reported as inconclusive: 13.1 µM [inhibitor, single point].
For `O=C(COC(=O)CCc1nc2ccccc2c(=O)[nH]1)Nc1ccc(N2CCOCC2)cc1`, the Potency was “inactive”.
With `Cc1ccc(CS(=O)(=O)c2cn(CC(=O)N3CCOCC3)c3ccccc23)cc1` the Potency was inconclusive: 18.5 µM [inhibitor, single point].
In the case of `COc1cccc(CN2CCNC(=O)C2CC(=O)NCCn2cccn2)c1OC` (stereo not given), the Potency is reported as inconclusive: 10.4 µM [inhibitor, partial curve].
For `O=C(Nc1ccc2c(c1)OCO2)C1CCN(S(=O)(=O)c2ccc3c(c2)OCCO3)CC1`, the Potency was “inactive”.
For `O=C(CSc1ccc(Cl)cc1)N/N=C/c1ccc([N+](=O)[O-])o1`, the Potency was inconclusive: 10.4 µM [inhibitor, partial curve, poor fit].
In the case of `Cc1cc(C)n(CC(C)NC(=O)CCc2nnc(CCc3ccccc3)o2)n1` (stereo not given), the Potency is reported as inconclusive: 4.65 µM [inhibitor, partial curve, poor fit].
For `CCn1c(NCc2ccc(N(C)C)cc2)nc2ccccc21`, the Potency was inconclusive: 0.117 µM [inhibitor, full curve, poor fit].
With `COC(=O)C(C)Sc1ccc2nnc(-c3ccc(F)cc3)n2n1` (stereo not given) the Potency was “inactive”.
In the case of `N#CCc1nn(-c2ccc(Cl)cc2)c(N)c1C#N`, the Potency is reported as active: 13.1 µM.
In the case of `COc1ccc(-c2cc3ccccc3nc2N)cc1OC`, the Potency is reported as inconclusive: 7.38 µM [inhibitor, partial curve].
In the case of `CCN1C(=O)c2cccc3c(S(=O)(=O)N4CCC(C)CC4)ccc1c23`, the Potency is reported as inconclusive: 7.38 µM [inhibitor, partial curve].
For `O=C(O)c1cccnc1SCC(=O)N1CCCCCC1`, the Potency was inconclusive: 2.33 µM [inhibitor, partial curve, poor fit].
With `COc1ccc(CCN2C(=O)CSC2=S)cc1OC` the Potency was inconclusive: 18.5 µM [inhibitor, single point].
With `CCOC(=O)C(C)Sc1nc2c(c(=O)[nH]c(=O)n2C)n1C/C=C(/C)Cl` (stereo not given) the Potency was inconclusive: 1.17 µM [inhibitor, full curve, poor fit].
In the case of `O=C(O)/C=C/C(=O)NCc1ccccc1`, the Potency is reported as “inactive”.
In the case of `CCc1nnc(NC(=O)CSc2nnc(CNC(=O)c3cc(OC)c(OC)c(OC)c3)o2)s1`, the Potency is reported as inconclusive: 0.522 µM [inhibitor, full curve, poor fit].
In the case of `CCCc1ccc2oc(C(=O)N3CCC(COC)C3)c(C)c2c1` (stereo not given), the Potency is reported as inconclusive: 18.5 µM [inhibitor, single point].
In the case of `O=C(CCCCCNC(=O)N1CCn2c1nc1ccccc12)N[C@@H](Cc1ccccc1)C(=O)O`, the Potency is reported as inconclusive: 18.5 µM [inhibitor, single point].
With `COc1ccc(-c2noc(COc3ccc4ccccc4c3Br)n2)cc1OC` the Potency was “inactive”.
With `O=C(Nc1ccc2c(c1)OCCO2)N1CCN(c2ccc(F)cc2)CC1` the Potency was “inactive”.
With `Cc1cc2c(cc1S(=O)(=O)NCC(C)c1ccccc1)n(C)c(=O)c(=O)n2C` (stereo not given) the Potency was inconclusive: 11.7 µM [inhibitor, single point].
With `O=C(N1CCN(c2ccccc2)CC1)C12CC3CC(CC(C3)C1)C2` the Potency was inconclusive: 20.8 µM [inhibitor, single point].
In the case of `COc1ccc(OC)c2c(=O)cc(C(=O)O)[nH]c12`, the Potency is reported as “inactive”.
With `CCCCc1nc(SCC(=O)N2CCCC2)c2c(=O)n(C)c(=O)n(C)c2n1` the Potency was inconclusive: 8.28 µM [inhibitor, partial curve, poor fit].
With `O=C(CC1S/C(=N/N=C/c2cccs2)NC1=O)Nc1ccc(Cl)cc1` (stereo not given) the Potency was active: 1.85 µM.
For `COCCCNc1oc(COc2ccc(Cl)cc2Cl)nc1C#N`, the Potency was active: 13.1 µM.
For `COC(=O)c1cccc(COC(=O)c2ccc(CS(=O)(=O)c3ccc(C)cc3)cc2)c1`, the Potency was “inactive”.
With `COc1cccc2sc(Nc3nc(C)c(C(C)=O)s3)nc12` the Potency was inconclusive: 2.08 µM [inhibitor, single point].
With `Cc1ccc2c(c1)Oc1ccc(NC(=O)CCCl)cc1C(=O)N2` the Potency was active: 0.294 µM.
In the case of `O=C(NCc1ccccc1Cl)c1ccc(-c2ccccc2)cc1`, the Potency is reported as inconclusive: 4.15 µM [inhibitor, single point].
For `C=CCn1c(SCC(=O)c2c(N)n(C)c(=O)n(C)c2=O)nc2sc(CC)cc2c1=O`, the Potency was inconclusive: 2.33 µM [inhibitor, single point].
For `COc1ccccc1N1CCN(S(=O)(=O)CCNC(=O)Cc2ccc(F)cc2)CC1`, the Potency was inconclusive: 14.7 µM [inhibitor, partial curve].
In the case of `Cn1c(N)c(C(=O)COC(=O)Cc2ccsc2)c(=O)n(C)c1=O`, the Potency is reported as active: 10.4 µM.
For `N/C(=N\OC(=O)C12CC3CC(CC(C3)C1)C2)c1ccncc1`, the Potency was inconclusive: 0.928 µM [inhibitor, partial curve, poor fit].
In the case of `S=C(NCCN1CCOCC1)Nc1ccc(Br)cc1`, the Potency is reported as “inactive”.
With `Cc1cc(C(=O)NC2CCCCC2)c(C)n1-c1ccc(F)cc1` the Potency was “inactive”.
For `Cc1nn(CCCC(=O)Nc2cc(Oc3ccc(F)cc3)cc([N+](=O)[O-])c2)c(C)c1[N+](=O)[O-]`, the Potency was inconclusive: 10.4 µM [inhibitor, single point].
In the case of `Cc1ccc2c(c1)N(CC(=O)OC(CC(C)C)C(=O)NC1CCCC1)C(=O)CO2` (stereo not given), the Potency is reported as inconclusive: 14.7 µM [inhibitor, partial curve, poor fit].
For `CC[C@@H](C)C(NC(=O)OC(C)(C)C)c1cn([C@@H](CCC(=O)OC(C)(C)C)C(=O)N2CCN(C(=O)OC(C)(C)C)CC2)nn1` (stereo not given in full), the Potency was inconclusive: 1.04 µM [inhibitor, partial curve, poor fit].
For `COc1ccccc1N1CCN(C(=O)C2CCCN(S(=O)(=O)c3ccc4c(c3)oc(=O)n4C)C2)CC1` (stereo not given), the Potency was “inactive”.
With `COC(=O)c1nn(-c2nc(-c3ccc(OC)c(OC)c3)cc(C(F)(F)F)n2)cc1[N+](=O)[O-]` the Potency was active: 16.5 µM.
For `O=C(Nc1ccc2oc(=O)ccc2c1)c1ccc(-c2cccc(Cl)c2)o1`, the Potency was inconclusive: 18.5 µM [inhibitor, single point].
For `COc1ccc(-c2c(C)sc(NC(=O)c3ccnn3C)c2C#N)cc1`, the Potency was “inactive”.
With `C=CCOc1ccc(/C=C/C(=O)OCC(=O)NCC2CCCO2)cc1` (stereo not given) the Potency was “inactive”.
With `CCCNC(=O)c1nn2cc(Br)cnc2c1Br` the Potency was inconclusive: 0.104 µM [inhibitor, full curve, poor fit].
In the case of `CCN(CC)C(=O)C(=O)c1c(-c2ccccc2)[nH]c2ccccc12`, the Potency is reported as “inactive”.
In the case of `CCOC(=O)C1=C(c2ccccc2)Nc2ncnn2C1c1cccc(OC)c1OC` (stereo not given), the Potency is reported as active: 1.85 µM.
For `O=C(NNC(=O)c1cc(Cl)ccc1O)c1cccs1`, the Potency was inconclusive: 0.522 µM [inhibitor, full curve, poor fit].
For `CN1CCCC1CCNC1C2CC3CC(C2)CC1C3` (stereo not given), the Potency was inconclusive: 6.57 µM [inhibitor, single point].
With `COCc1ccc(-c2c(-c3cccc(OC)c3)sc3ccc(OC)cc23)cc1` the Potency was inconclusive: 4.15 µM [inhibitor, single point].
With `Cc1cccc(C(=O)NCC(=O)N2CCN(S(=O)(=O)c3ccc4c(c3)OCCO4)CC2)c1` the Potency was “inactive”.
